Results reported in PubChem BioAssay AID1347423 (Functional Genomics Laboratory (NCATS/FGL), 2020).
Among all 52,000 sequences or so, about 210 (0.4%) were called active.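 The calls were made as follows: active = gene whose silencing raises cell survival under the drug, median off-target-corrected z-score across its silencing RNAs 2 or more; inactive = the rest.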 Some of the results follow.

experiment: Resistance to Poly (ADP-Ribose) Polymerase inhibitor: Gene Identification via Genome-wide siRNA Screen; conditions: mouse BRCA2 R2336H ES cells, olaparib, CellTiter-Glo viability; stronger effect = higher value
Method in brief: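 Genome-wide siRNA screen (3 siRNAs/gene, 20 nM) in mouse ES cells carrying hypomorphic BRCA2 R2336H; olaparib 500 nM added 48 h post-transfection, CellTiter-Glo viability 72 h later. Normalized to plate-median negative control; MAD z-scores, gene median, seed-adjusted.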

| Sequence | z-score |
| --- | --- |
| GGUAACUAUGAAGAGAUCATT against Neu2 | inactive: 2.48 |
| GGCAGAGAUUGAGAGCAAGTT against Palm | inactive: 1.2 |
| GGUCCACCUUCUUACUUUATT against 2900064A13Rik | inactive: -1.18 |
| GGUUCAUUGUGUCUCUGGCTT against Grk1 | inactive: 0.169 |
| CCACAAGUGCUUCAUGGGUTT against Rims3 | inactive: -0.0813 |
| GGGCAAAAGCUGUUACAAGTT against Ahrr | inactive: 0.359 |
| GGUUGUGGAACAAAGAGAATT against Gucy1b3 | inactive: 1.39 |
| GGGCAGGUGGAUGUGGAAATT against Ryr2 | inactive: -0.427 |
| GGAAUCGUCUGAGAAAUUCTT against Lgmn | inactive: 0.618 |
| CGUCAUAAAGAAUAGUUCCTT against Ncoa4 | inactive: -0.259 |
| GCGACUGAACAUCAACGCATT against Ada | inactive: 0.969 |
| GGAUGAAAGCAAAGACAAGTT against Zipro1 | inactive: 0.174 |
| GGGAAUGCACUACAACUACTT against D1Bwg1363e | inactive: -0.273 |
| GGACUCUGUCCUUUUCAAATT against 5031404N07 | inactive: 0.407 |
| UACCCUAGGUCGACUCUCATT against Faim3 | inactive: -0.689 |
| GGACGACAUGAUUUUCGAGTT against Atp1b1 | inactive: -0.208 |
| GGAAGAUGAUGUUUUAGGUTT against Pde7a | inactive: 2 |
| GUCAACUUGCUGCCAAGACTT against Ifna2 | inactive: -2.74 |
| CCAAACAAUAGACAUGCUUTT against Npy1r | inactive: 1.24 |
| GGAUGAAGACCUUGAACGGTT against Slc28a3 | inactive: 2 |
| GCAGUGAUUCAGUUAUAACTT against Gypc | inactive: 0.0824 |
| GGAUUUUGUUUCAGGUGGATT against 4832412O06Rik | inactive: 0.127 |
| GCUAAAAUAUUAGGGAAGCTT against 1810026J23Rik | inactive: 0.159 |
| GGUUUAAGAUUGAGUAUUCTT against Cri1 | inactive: 0.0181 |
| CCCGGAGGCUUCAAAACAATT against Hsd17b2 | inactive: -0.549 |
| GAAGAUGACAACCAAACGCTT against Ucn3 | inactive: 0.885 |
| GAUUCUUGUCGCUCAUAGCTT against V1ra7 | inactive: -0.4 |

| Sequence | z-score |
| --- | --- |
| GCUCUCAGCAAAAACCGAGTT against 4832420M10 | inactive: 2.2 |
| GGAAGAAAAACAGAGGAGATT against Cts7 | inactive: 0.987 |
| UGUUCUGGAAUAGAGUAACTT against 2900006N09Rik | inactive: -0.463 |
| CGUGUACGACAUCUCCUAUTT against BC003324 | inactive: 0.358 |
| GCUAACAAGCUAGCAUUUATT against 2610020N02Rik | inactive: -2 |
| CCCAAGCAACCCUUAUCAATT against Mcee | inactive: 1.36 |
| GGAUAUGUUGAAAGACAGCTT against 4932413O14Rik | inactive: 0.593 |
| GGACAUGACUCUAAAAAAATT against BC010552 | inactive: 0.843 |
| CCUGACCAAGGGACUCUCUTT against 6330514A18Rik | inactive: 0.0711 |
| GGAGAAUGAGAUCAACCUGTT against Pah | inactive: 0.0423 |
| GGGAGUUAAAUACCUGUGUTT against Dusp22 | inactive: -0.45 |
| GCUUAUGCAAUAUGAUAACTT against Gnpda2 | inactive: 0.552 |
| CCUUCUAAGAGAAAAACGUTT against Eps15 | inactive: 0.449 |
| GGAAAUGGAGAAAUAUGCATT against Plod3 | inactive: 2.65 |
| GGAAGGUACCAGGUGAUUGTT against Nmnat3 | inactive: 1.39 |
| GGUCAACAAGGGCUUAUAGTT against Rpl22 | inactive: -0.592 |
| GGAUAAAGGAAUCUGAUCUTT against C030018G13Rik | inactive: 1.03 |
| GGAGGAGAUUGUCCAGAAATT against Ecm1 | inactive: -0.217 |
| GGAUCUACGAAAAAGAUGATT against Crygb | inactive: 0.051 |
| GGUGAACUUGAAGUGCCUCTT against Tna | inactive: 0.317 |
| GGUGACCAAUCUGUAUGUUTT against Madcam1 | inactive: 0.603 |
| CCAUUUCUAAGUGUGAAAGTT against 4632428N05Rik | inactive: 0.242 |
| GGUACUUUCGGACUCAGUUTT against Ipp | inactive: -1.89 |
| GGCAUAUCAACUGUCGUUCTT against Cyp2r1 | inactive: 0.303 |
| GCCACCAGUGCUUUUCAAGTT against Gm962 | inactive: 0.407 |
| CGAGGAGAUCAGCUACUUUTT against Lin7c | inactive: -0.895 |
| GCAAAGAUUGUUUUUGCUGTT against Oat | inactive: 0.236 |

Single values from the list:
GCUCUCAGCAAAAACCGAGTT against 4832420M10 | z-score: inactive: 2.2
CGAGGAGAUCAGCUACUUUTT against Lin7c | z-score: inactive: -0.895

Later entries:

| Sequence | z-score |
| --- | --- |
| GGAUAAACUUAAACAACUCTT against Tnpo2 | inactive: 0.543 |
| CCAAGAACUGCUCAUUCAGTT against Gm123 | inactive: 0.354 |
| GGUGAUGGUAACUCAACGATT against BC022641 | inactive: -1.72 |
| GCUUGCAUAAAUUGCUAAATT against Xrcc4 | inactive: 0.542 |
| GGGUUUCUCCAGUAUGCAUTT against Mr1 | inactive: 0.0279 |
| GCCUCUUUGAUAGCAAAAGTT against Cct6a | inactive: 0.0125 |
| GUGACAAAAACAUCCAAGCTT against Olfr456 | inactive: 0.758 |
| GGAGCAGUAUGAAAGGGAUTT against Trap1a | inactive: -0.602 |
| GUGUAAAAGUGCAAAGAGATT against Klra7 | inactive: 0.802 |
| CCUGAAAGAACGGGAGUAGTT against Mab21l2 | inactive: -3.52 |
| GGGAUUGAGGGAGAUUUUCTT against 1600002H07Rik | inactive: 2.55 |
| GGACAUCGAGCUUCAGAUCTT against Dnm1l | inactive: -0.515 |
| CGUACUCUUGGAGAGGAUUTT against Sva | inactive: 0.626 |
| CGACUCCGGCAUCUAUGAUTT against Cmklr1 | inactive: 0.457 |
| GGCAUGUGGAAAACCUCCUTT against 1700006D24Rik | inactive: -0.606 |
| GCUGGACACGGAAGGUAUATT against Igsf8 | inactive: -0.279 |
| GGAGACUGAAGUCCAUCAATT against Atp5c1 | inactive: -2.33 |
| GGGCUGGGAGACAAAGAAATT against A130050O07Rik | inactive: -1.27 |
| CGUAGAGAUCAGUUCAAUGTT against Clock | inactive: -0.2 |
| GGAGAUCUAUUACCACGGATT against Arrb1 | inactive: -0.648 |
| GGAUAGGGCAUGGAAAUCCTT against Scnn1g | inactive: 1.93 |
| GCAUUCAAUGUUCUUAAGCTT against Tmc3 | inactive: 0.183 |
| GGCGACAGGUCCUGUAAUGTT against Ddx56 | inactive: 0.435 |
| CGACCUACUUGGGAUGAUGTT against AY487415 | inactive: -2.49 |
| GGAUUAGAAUGUCAUGUCUTT against Ddx20 | inactive: 1.43 |
| GGAUAAAGCCCAGUGAACCTT against C630035N08Rik | inactive: 0.862 |
| GGGCGAUGAAGAAGAGAAATT against Smad1 | inactive: -1.62 |

As a working copy, part of the list above.

| Sequence | z-score |
| --- | --- |
| CCACAAGUGCUUCAUGGGUTT against Rims3 | inactive: -0.0813 |
| GGGCAAAAGCUGUUACAAGTT against Ahrr | inactive: 0.359 |
| GGUUGUGGAACAAAGAGAATT against Gucy1b3 | inactive: 1.39 |
| GGGCAGGUGGAUGUGGAAATT against Ryr2 | inactive: -0.427 |
| GGAAUCGUCUGAGAAAUUCTT against Lgmn | inactive: 0.618 |
| CGUCAUAAAGAAUAGUUCCTT against Ncoa4 | inactive: -0.259 |
| GCGACUGAACAUCAACGCATT against Ada | inactive: 0.969 |

(further entries)

| Sequence | z-score |
| --- | --- |
| CGACGAACGGGUAAAAGGUTT against Pcdha4 | inactive: 0.327 |
| GUGCCUCUCAUCACUAUCUTT against Olfr571 | inactive: -0.175 |
| GGUUUGUAGACGACAAUCUTT against Insig1 | inactive: 0.173 |
| GGACAUGAAAGAAACGGUGTT against Bbc3 | inactive: 0.575 |
| GGCAGAACUUGCCGAGUAGTT against 2010300G19Rik | inactive: -2.14 |
| GCAAGUUAAGGAUAUCAUGTT against Katna1 | inactive: 0.32 |
| GGAAGUGGACGUGAAACCCTT against Btg3 | inactive: -0.889 |
| CCCGAGACCAUUAAUGAUUTT against Snx3 | inactive: 0.327 |
| GCUUGUUCGGGAAUCUUAUTT against Olfr292 | inactive: 0.0211 |
| GGACCGGUGUCUAAUCAGCTT against Capn10 | inactive: 0.157 |
| GCUUGUGCUCUAAAUAUGATT against 4921513B05Rik | inactive: 0.866 |
| GGAACAUUGGUGUUACAGCTT against Atp5j | inactive: -0.285 |
| GGAACUAGGACUAAACAACTT against Lrrn2 | inactive: -0.131 |
| GGGAGCUCCAAGGUUACUUTT against BC043301 | inactive: -1.49 |
| GGUGUUUGGGCGGUUUGAATT against Snx15 | inactive: -2.33 |
| GCACUCCACUCUUCCAUCATT against Cxcl16 | inactive: 0.82 |
| CCUAAUCAGCAAACCAGGUTT against Magee2 | inactive: 0.201 |
| GGUGCUACAAUUCUGUGCGTT against 4921526K24Rik | inactive: 1.53 |
| GGCUAAAUGAGCAAAAUCUTT against Falz | inactive: 0.445 |
| GCAUGAUGCAAGGACUCUCTT against Onecut2 | inactive: -2.23 |
| GGUGAUAAAACCUGUUUCATT against Col19a1 | inactive: -1.26 |
| GGCUGUGCUUUCUCUUGAUTT against BC037034 | inactive: -1.41 |
| GCUACUACAGUCAGUCGCATT against Galr2 | inactive: 1.13 |
| GGGCAUUGGAAAACUAAAGTT against Lrrc1 | inactive: 0.289 |
